Results as given in publication PMC6451745, “Development and dosimetry of ^203Pb/^212Pb-labelled PSMA ligands: bringing “the lead” into PSMA-targeted alpha therapy?” (European Journal of Nuclear Medicine and Molecular Imaging, 2019).

Assays:
[1] = system: patients with castration-resistant metastasized prostate cancer; assay: Dosimetry extrapolated from ^203Pb-CA012 to ^212Pb-CA012
[2] = set-up: method as in PMID 28408529; conditions: projected treatment activity 6–8 MBq; cited from earlier work
[3] = RBE 5 for alpha, 1 for beta and gamma
[4] = projected treatment activity 100 MBq

SMILES	share of alpha radiation in equivalent dose [1, 3] [%]	share of beta radiation in equivalent dose [1, 3] [%]	share of gamma radiation in equivalent dose [1, 3] [%]	Tumour/kidneys dose ratio [1, 4]	Tumour/red marrow dose ratio [1, 4]	Tumour/salivary glands dose ratio [1, 4]	Tissue equivalent dose, Tumour (mean) [2] [SvRBE5]	Tumour/kidneys dose ratio [2]	Tumour/red marrow dose ratio [2]	Tumour/salivary glands dose ratio [2]
NC(=O)CN1CCN(CC(N)=O)CCN(CC(=O)NC[C@H]2CC[C@H](C(=O)N[C@@H](Cc3ccc4ccccc4c3)C(=O)NCCCC[C@H](NC(=O)N[C@@H](CCC(=O)O)C(=O)O)C(=O)O)CC2)CCN(CC(N)=O)CC1.[212Pb+2] [^212Pb-CA012]	96.4	2.2	1.4	2.9	23.3	1.9				
O=C([O-])CC[C@H](NC(=O)N[C@@H](CCCCNC(=O)[C@H](Cc1ccc2ccccc2c1)NC(=O)C1CCC(CNC(=O)CN2CCN(CC(=O)[O-])CCN(CC(=O)[O-])CCN(CC(=O)[O-])CC2)CC1)C(=O)[O-])C(=O)[O-].[225Ac].[H+].[H+].[H+] (stereo partly shown) [^225Ac-PSMA-617]							34	8.1	113.3	2.5
